# Assay results as given in paper doi:10.1101/2024.04.15.589462.
# Chains of the proteins cited; added tags and fusions are not shown.
# UniProt Q80U70: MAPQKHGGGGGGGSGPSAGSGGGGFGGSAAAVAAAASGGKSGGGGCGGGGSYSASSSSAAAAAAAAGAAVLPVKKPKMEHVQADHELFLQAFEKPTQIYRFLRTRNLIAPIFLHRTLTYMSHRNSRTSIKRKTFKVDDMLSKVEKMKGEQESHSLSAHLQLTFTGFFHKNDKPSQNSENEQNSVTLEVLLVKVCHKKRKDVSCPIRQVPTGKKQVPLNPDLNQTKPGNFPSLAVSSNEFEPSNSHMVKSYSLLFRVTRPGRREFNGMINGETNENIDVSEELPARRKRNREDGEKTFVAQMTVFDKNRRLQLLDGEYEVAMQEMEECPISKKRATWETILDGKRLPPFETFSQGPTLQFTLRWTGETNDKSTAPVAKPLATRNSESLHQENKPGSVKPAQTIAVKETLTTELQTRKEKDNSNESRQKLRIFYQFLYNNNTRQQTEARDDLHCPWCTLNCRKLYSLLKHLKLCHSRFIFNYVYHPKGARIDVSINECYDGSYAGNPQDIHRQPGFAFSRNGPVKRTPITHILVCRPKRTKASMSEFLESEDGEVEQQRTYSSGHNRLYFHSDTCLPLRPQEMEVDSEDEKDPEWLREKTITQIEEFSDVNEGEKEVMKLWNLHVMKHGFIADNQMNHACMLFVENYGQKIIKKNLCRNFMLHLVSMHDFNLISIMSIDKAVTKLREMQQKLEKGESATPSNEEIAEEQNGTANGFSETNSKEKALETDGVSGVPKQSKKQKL
# UniProt Q61188: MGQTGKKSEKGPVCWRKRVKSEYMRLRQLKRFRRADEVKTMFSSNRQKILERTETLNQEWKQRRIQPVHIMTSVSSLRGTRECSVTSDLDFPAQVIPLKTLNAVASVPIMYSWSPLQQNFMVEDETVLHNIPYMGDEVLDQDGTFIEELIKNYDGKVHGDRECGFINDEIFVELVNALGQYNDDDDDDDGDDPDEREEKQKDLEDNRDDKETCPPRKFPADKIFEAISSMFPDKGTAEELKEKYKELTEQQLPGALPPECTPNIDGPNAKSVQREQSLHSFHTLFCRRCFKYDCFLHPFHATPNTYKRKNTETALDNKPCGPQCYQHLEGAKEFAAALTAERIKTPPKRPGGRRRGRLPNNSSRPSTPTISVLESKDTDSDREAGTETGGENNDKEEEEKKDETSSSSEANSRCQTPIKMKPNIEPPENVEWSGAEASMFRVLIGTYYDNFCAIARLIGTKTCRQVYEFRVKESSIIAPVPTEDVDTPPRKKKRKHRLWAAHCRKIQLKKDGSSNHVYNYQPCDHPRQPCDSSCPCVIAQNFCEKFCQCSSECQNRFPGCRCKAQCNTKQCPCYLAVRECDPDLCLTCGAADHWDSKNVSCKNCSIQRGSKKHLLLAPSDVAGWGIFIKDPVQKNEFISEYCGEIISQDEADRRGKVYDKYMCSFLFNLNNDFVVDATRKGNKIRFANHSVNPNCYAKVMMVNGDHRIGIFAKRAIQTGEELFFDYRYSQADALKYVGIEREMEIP
# These are yes or no findings as the source states them, for the method shown. Binding seen in cells or lysates may run through a third protein. Some results given as binding are weak or reduced against the parent protein; the word gives no strength. For some assays here: Tags and fused reporters may be left off the sequences shown.
# Columns and labels:
# [1] = molecular target: T1, endogenous AUTS2 (mouse (endogenous in embryonic cerebral cortex)); assay: co-IP
# T1 sequence: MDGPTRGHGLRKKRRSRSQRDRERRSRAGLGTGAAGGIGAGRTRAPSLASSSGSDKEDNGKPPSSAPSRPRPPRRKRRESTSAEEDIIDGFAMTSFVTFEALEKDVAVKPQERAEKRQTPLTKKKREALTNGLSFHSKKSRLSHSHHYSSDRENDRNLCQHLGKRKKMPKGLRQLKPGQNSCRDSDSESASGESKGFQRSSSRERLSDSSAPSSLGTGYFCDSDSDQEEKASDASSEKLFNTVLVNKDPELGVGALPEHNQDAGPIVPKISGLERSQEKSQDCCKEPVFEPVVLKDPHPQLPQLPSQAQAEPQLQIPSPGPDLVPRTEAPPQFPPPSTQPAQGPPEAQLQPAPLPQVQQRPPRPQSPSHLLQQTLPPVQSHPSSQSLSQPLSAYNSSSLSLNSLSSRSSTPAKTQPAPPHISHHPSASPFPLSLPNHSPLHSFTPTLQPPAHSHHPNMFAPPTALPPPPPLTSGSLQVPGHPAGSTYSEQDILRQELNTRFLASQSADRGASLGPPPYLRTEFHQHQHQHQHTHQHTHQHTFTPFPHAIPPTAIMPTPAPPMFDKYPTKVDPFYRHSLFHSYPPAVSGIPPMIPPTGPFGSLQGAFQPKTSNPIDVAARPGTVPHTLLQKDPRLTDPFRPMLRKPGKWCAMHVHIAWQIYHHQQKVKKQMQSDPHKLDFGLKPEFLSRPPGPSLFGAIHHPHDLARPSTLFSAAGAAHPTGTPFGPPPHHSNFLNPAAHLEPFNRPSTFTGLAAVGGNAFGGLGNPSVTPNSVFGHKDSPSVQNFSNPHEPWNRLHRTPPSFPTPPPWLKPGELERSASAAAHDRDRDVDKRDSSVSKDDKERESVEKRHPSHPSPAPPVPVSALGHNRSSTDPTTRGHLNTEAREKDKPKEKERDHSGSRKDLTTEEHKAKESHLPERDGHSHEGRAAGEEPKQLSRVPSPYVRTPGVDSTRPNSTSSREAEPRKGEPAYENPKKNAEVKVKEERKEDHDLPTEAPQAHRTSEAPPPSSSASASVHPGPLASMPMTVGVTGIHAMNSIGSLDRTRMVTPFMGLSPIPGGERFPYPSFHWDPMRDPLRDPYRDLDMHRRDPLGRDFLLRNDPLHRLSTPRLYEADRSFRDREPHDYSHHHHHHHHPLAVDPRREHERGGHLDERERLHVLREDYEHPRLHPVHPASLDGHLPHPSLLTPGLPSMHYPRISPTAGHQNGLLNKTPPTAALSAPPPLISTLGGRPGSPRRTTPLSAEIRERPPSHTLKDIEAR
# [2] = molecular target: T2, 3xFlag-tagged FL-AUTS2; assay: co-IP
# T2 sequence: T1 sequence
# [3] = molecular target: T1, endogenous AUTS2 (mouse (endogenous in embryonic cerebral cortex)); assay: proximity ligation
binding [1],binding [2],binding [3],Substance
binds,binds,,SUZ12 (from UniProt Q80U70 1-741)
binds,binds,binds,EZH2 (from UniProt Q61188 1-746)
